According to article PMC8012910:
These are yes or no findings as the source states them, for the method shown. Binding seen in cells or lysates may run through a third protein. Some binding calls cover weakened binding; strength is not graded here.

By UniProt entry, the sequences of proteins in these tests, tags left out.
UniProt O35718: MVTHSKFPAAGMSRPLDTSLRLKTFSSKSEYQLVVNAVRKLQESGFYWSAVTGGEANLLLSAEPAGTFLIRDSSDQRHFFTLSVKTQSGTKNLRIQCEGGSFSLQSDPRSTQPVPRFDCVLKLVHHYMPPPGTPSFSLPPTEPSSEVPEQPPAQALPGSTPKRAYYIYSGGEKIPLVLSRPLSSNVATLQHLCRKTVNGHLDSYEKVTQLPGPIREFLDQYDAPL

Biological target: SOCS3-Myc (suppressor of cytokine signaling 3, Myc-tagged) (UniProt O35718)
Test: co-IP; IP of SOCS3-Myc from lysates of transfected OP9-DL1 cells (anti-Myc by the methods, 'anti-SOCS3' by the legend) or isotype control, Protein-G agarose, 4°C; Western blot with rabbit anti-TRIM21

- binding: binds
B1: E3 ubiquitin ligase TRIM21 (protein, UniProt Q62191 1-470)
chain: MSPSTTSKMSLEKMWEEVTCSICLDPMVEPMSIECGHCFCKECIFEVGKNGGSSCPECRQQFLLRNLRPNRHIANMVENLKQIAQNTKKSTQETHCMKHGEKLHLFCEEDGQALCWVCAQSGKHRDHTRVPIEEAAKVYQEKIHVVLEKLRKGKELAEKMEMDLTMQRTDWKRNIDTQKSRIHAEFALQNSLLAQEEQRQLQRLEKDQREYLRLLGKKEAELAEKNQALQELISELERRIRGSELELLQEVRIILERSGSWNLDTLDIDAPDLTSTCPVPGRKKMLRTCWVHITLDRNTANSWLIISKDRRQVRMGDTHQNVSDNKERFSNYPMVLGAQRFSSGKMYWEVDVTQKEAWDLGVCRDSVQRKGQFSLSPENGFWTIWLWQDSYEAGTSPQTTLHIQVPPCQIGIFVDYEAGVVSFYNITDHGSLIYTFSECVFAGPLRPFFNVGFNYSGGNAAPLKLCPLKM
